Screen size: about 320,000 compounds; about 22,000 (6.9%) were called active. The inconclusive results got no clear call from the source; some entries with a clear call stand among them for comparison. Calls follow the shape of the dose curve; as a rule, active = well fitted inhibition curve with a large enough effect; inconclusive = small, poorly fitted or top-dose-only effect, or another doubt; inactive = no such curve, though single readings can be large or run the other way. A potency beside an inconclusive call is a rough fit, not a confirmed value.
Experiment: Primary qHTS for delayed death inhibitors of the malarial parasite plastid, 96 hour incubation
Conditions: P. falciparum luciferase reporter growth; series mostly up to 28.7 µM
How it was run: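 P. falciparum expressing integrated firefly luciferase, in erythrocytes at 2% hematocrit, 0.05% parasitemia, incubated with compounds 96 h at 37 C, 5% CO2. Growth inhibition read as loss of luminescence; two-generation exposure targets delayed-death apicoplast inhibitors.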
With CC(=O)Nc1ccc(NC(=O)c2cc(C)nn2-c2ccccc2)cc1 the Potency was “inactive”.
In the case of COC(=O)c1ccccc1N=Nc1c(N)n[nH]c1N, the Potency was “inactive”.
In the case of CCCCc1ccc(-n2nnnc2SCC(=O)Nc2cc(OC)c([N+](=O)[O-])cc2C)cc1, the Potency was inconclusive: 10.4 µM [inhibitor, single point].
In the case of CCOc1ccc(CCNS(=O)(=O)c2c(C)nc3scc(C)n3c2=O)cc1OCC, the Potency was inconclusive: 14.7 µM [inhibitor, single point].
For CCOc1ccc(C2=Nn3c(nnc3-c3ccc(OC)cc3)SC2)cc1, the Potency was inconclusive: 11.7 µM [inhibitor, partial curve, poor fit].
With Cc1nc2cc(C(=O)OCC(=O)Nc3ccc(C#N)cc3)ccc2n1-c1ccccc1 the Potency was inconclusive: 14.7 µM [inhibitor, partial curve, poor fit].
For COc1cc(C(=O)NC2CCCc3ccccc32)cc(OC)c1C (centres undefined), the Potency was inconclusive: 3.7 µM [inhibitor, partial curve].
With Fc1ccc(NCc2ccccc2F)cc1Cl the Potency was “inactive”.
With COc1cccc(-c2cc(C(=O)N3CCCCC3C)no2)c1 (centres undefined) the Potency was inconclusive: 11.7 µM [inhibitor, partial curve].
For Cc1c(CCO)c(=O)[nH]n1C(=O)c1ccc(F)cc1, the Potency was “inactive”.
With CC1SC(=NC(=O)c2ccncc2)NC1=O (centres undefined) the Potency was “inactive”.
In the case of CC(c1ccccc1)N1CCN(C(=O)CCl)CC1 (centres undefined), the Potency was inconclusive: 1.47 µM [inhibitor, full curve].
In the case of Cn1nc(C(F)(F)F)c(CN2CC(C)(C)C2=O)c1N1CCOCC1, the Potency was inconclusive: 13.1 µM [inhibitor, single point].
In the case of CCN(CC)CCN(C(=O)C1=COCCO1)c1nc2ccc(C)cc2s1, the Potency was “inactive”.
With Cc1cccc(Oc2nc(CN3CCOCC3)nc3sc4c(c23)CCCC4)c1 the Potency was inconclusive: 16.5 µM [inhibitor, partial curve, poor fit].
In the case of CN(C)S(=O)(=O)c1cccc(C(=O)Nc2ccc(S(=O)(=O)N3CCCC3)cc2)c1, the Potency was inconclusive: 18.5 µM [inhibitor, single point].
In the case of O=S(=O)(c1cccs1)N1CN(Cc2ccccc2)c2nc3ccccc3nc21, the Potency was inconclusive: 16.5 µM [inhibitor, partial curve, poor fit].
In the case of CC(=O)Nc1ccc(S(=O)(=O)N2CCC(c3nnc(-c4ccc(C)cc4)o3)CC2)cc1, the Potency was inconclusive: 0.0928 µM [inhibitor, full curve, poor fit].
In the case of CCc1nc(SCC(=O)Nc2cc(C)on2)n[nH]1, the Potency was inconclusive: 10.4 µM [inhibitor, single point].

— PubChem BioAssay AID504834 (National Center for Advancing Translational Sciences (NCATS), 2011)
Potency is read from the fitted curve at half-maximal effect.
